In PubChem BioAssay AID540256 (National Center for Advancing Translational Sciences (NCATS), 2011):
Out of some 300,000 compounds screened, about 3,700 (1.2%) were called active. The inconclusive results got no clear call from the source; some entries with a clear call stand among them for comparison. Calls follow the shape of the full dose curve; tested in HEK293 cells. Where the call is inconclusive, the potency comes from a doubtful curve fit.

Assay: qHTS for Inhibitors of binding or entry into cells for Lassa Virus; also: nearly all actives have a fitted effect of over 50% in size
Details: Lassa virus pseudotype entry inhibition, cell reporter; activity change, negative = inhibition: at 37.9 µM (top of the series) unless noted
% is scaled to controls: 0 for no effect and ±100 for the full control effect; potency is read from the fitted curve at half-maximal effect.

For `O=C(Nc1ccc2oc(-c3cccnc3)nc2c1)c1ccc(-c2ccccc2OC(F)(F)F)o1`, which Potency is on record?
The Potency was inconclusive: 0.891 µM [inhibitor, full curve, poor fit].

For `COCCn1c(N)c(C(=O)OCc2ccccc2)c2nc3ccccc3nc21`, which Potency is on record?
The Potency was inconclusive: 0.164 µM [inhibitor, full curve, poor fit].

For `Cn1c(CCNC(=O)c2ccco2)nc2cc(NS(=O)(=O)c3ccc(Cl)cc3)ccc21`, which “activity change, negative = inhibition” value is on record?
The value was inactive: -1.4%.

With `O=C(Nc1cccc(Cl)c1)c1ccc(F)c(S(=O)(=O)NCc2ccc3c(c2)OCO3)c1` as the compound, how does the Potency read?
Its Potency is inconclusive: 5.62 µM [inhibitor, single point].

For `O=C(NCCc1cccs1)c1ccc(Cl)cc1`, which Potency is on record?
Its Potency is active: 5.62 µM.

With `Cc1cccc(-c2nc3scc(CCNS(=O)(=O)c4ccc(Oc5ccccc5)cc4)n3n2)c1` as the compound, how does the “activity change, negative = inhibition” value read?
Its value is inactive: -2.05% [at 46.1 µM].

With `O=C(OCC(=O)N1N=C(c2ccc(Cl)cc2)CC1c1ccco1)c1ccco1` (configuration not stated) as the compound, how does the Potency read?
Its Potency is inconclusive: 25.1 µM [inhibitor, partial curve, poor fit].

Which Potency does the source give for `O=C(CCl)N(c1ccccc1)c1ccccc1` here?
The Potency was inconclusive: 22.4 µM [inhibitor, single point].

With `Cn1c(=O)c2cc(C(=O)NCCCN3CCN(c4cccc(Cl)c4)CC3)sc2c2ccccc21` as the compound, how does the Potency read?
Its Potency is inconclusive: 0.562 µM [activator, full curve, poor fit].

For `C=CCOC(=O)C1=C(C)NC(SCC(=O)N(CC)CC)=C(C#N)C1c1ccco1` (configuration not stated), which Potency is on record?
Its Potency is inconclusive: 35.5 µM [inhibitor, single point].

With `Cc1ccc(C)c(N2CCN(S(=O)(=O)c3ccc(-c4ccc(=O)[nH]n4)o3)CC2)c1` as the compound, how does the Potency read?
The Potency was inconclusive: 10 µM [inhibitor, partial curve, poor fit].

With `COc1cc2[nH]c(=S)nc(NCC3CCCO3)c2cc1OC` (configuration not stated) as the compound, how does the “activity change, negative = inhibition” value read?
The value was inactive: -13.4%.

For `COc1ccc(/C=C\C(=O)CC(O)(c2ccccc2)C(F)(F)F)cc1` (configuration not stated), which Potency is on record?
The Potency was inconclusive: 29.1 µM [inhibitor, single point].

Which Potency does the source give for `O=C(c1noc2c1CCCC2)N1CCN(c2ccccc2)CC1` here?
Its Potency is inconclusive: 4.61 µM [activator, single point].

For `Cc1[nH]c2ccccc2c1C(=O)COC(=O)c1c(-c2c(F)cccc2Cl)noc1C`, which “activity change, negative = inhibition” value is on record?
Its value is inactive: -25.9%.

For `CCN(c1ccccc1C)S(=O)(=O)c1ccc(N2CCCCS2(=O)=O)cc1`, which Potency is on record?
The Potency was inconclusive: 35.5 µM [inhibitor, single point].

Which Potency does the source give for `CC1CCCC(NC(=O)CN2C(=O)NC(c3ccccc3)(c3ccccc3)C2=O)C1C` (configuration not stated) here?
The Potency was inconclusive: 15.8 µM [inhibitor, partial curve].

Which Potency does the source give for `Cc1sc(NC(=O)c2ccco2)c(C(c2cccnc2)N2CCC(C)CC2)c1C` (configuration not stated) here?
Its Potency is active: 20.6 µM.

With `C=CCn1c(O)c(C(C)=Nc2ccc(N(CC)CC)cc2)c(=O)[nH]c1=O` as the compound, how does the Potency read?
Its Potency is inconclusive: 18.3 µM [inhibitor, partial curve, poor fit].

For `CC1CC(=O)C(C(C2=C(O)CC(C)CC2=O)c2ccccc2)=C(O)C1` (configuration not stated), which “activity change, negative = inhibition” value is on record?
Its value is inactive: -3.73%.

With `COc1ccc2[nH]c(C)c(C(=O)CN3CCN(C/C=C/c4ccccc4)CC3)c2c1` as the compound, how does the Potency read?
The Potency was inconclusive: 29.1 µM [inhibitor, single point].

Which Potency does the source give for `COc1ccccc1C(=O)NCCn1cc(SCc2ccc(C)cc2)c2ccccc21` here?
Its Potency is inconclusive: 35.5 µM [inhibitor, single point].

For `N=NC(=O)c1ccccc1Nc1c(O)[nH]c2ccccc12`, which Potency is on record?
The Potency was active: 6.31 µM.

For `COc1ccc2[nH]cc(CCNC(=O)Cc3ccc(Br)cc3)c2c1`, which Potency is on record?
Its Potency is inconclusive: 35.5 µM [inhibitor, single point].

With `CCCn1c(C)c(C(=O)c2ccc3ccccc3c2)c2ccccc21` as the compound, how does the Potency read?
The Potency was inconclusive: 0.0041 µM [activator, full curve, poor fit].

Which Potency does the source give for `O=C1C(NS(=O)(=O)c2cccs2)=C(N2CCN(c3cccc(Cl)c3)CC2)C(=O)c2ccccc21` here?
The Potency was inconclusive: 35.5 µM [inhibitor, single point].

Which “activity change, negative = inhibition” value does the source give for `CCc1ccc(C(=O)NNC(=O)c2ccc3c(=O)n4c(nc3c2)CCC4)cc1` here?
Its value is inactive: -3.16%.

For `CC(C)CNC(=O)c1ccccc1NC(=O)c1ccccc1N(C)S(C)(=O)=O`, which “activity change, negative = inhibition” value is on record?
Its value is inactive: -16.4%.

Which Potency does the source give for `O=C(CCCc1ccccc1)Nc1ccc2c(c1)OCCO2` here?
The Potency was active: 8.91 µM.

Which Potency does the source give for `CCOC(=O)CNC(=O)CSc1nc(-c2ccc(C)cc2)ns1` here?
Its Potency is inconclusive: 3.98 µM [inhibitor, partial curve, poor fit].

For `O=c1cc2c(nn1Cc1ccc(Cl)cc1)-c1ccccc1CC2`, which “activity change, negative = inhibition” value is on record?
The value was inactive: 14.2%.

With `N/C(=N\OC(=O)c1ccccc1)C(C(=O)NOC(=O)c1ccccc1)C1CCCCC1` (configuration not stated) as the compound, how does the Potency read?
Its Potency is inconclusive: 3.16 µM [inhibitor, single point].

With `c1ccc(-c2nc(N3CCCCCC3)nc(-n3ccnc3)n2)cc1` as the compound, how does the Potency read?
The Potency was inconclusive: 1.26 µM [activator, single point].

Which Potency does the source give for `O=C(NC(Nc1nc2ccc([N+](=O)[O-])cc2s1)(C(F)(F)F)C(F)(F)F)c1ccccc1Cl` here?
Its Potency is active: 1.64 µM.

For `Cc1ccc(S(=O)(=O)N2CCN(C(=O)CSc3ccc(Cl)cc3)CC2)cc1`, which Potency is on record?
Its Potency is inconclusive: 35.5 µM [inhibitor, single point].

Which Potency does the source give for `COc1ccc(CC(=O)Nc2ccc(-c3noc(-c4ccc(Cl)cc4)n3)cc2)cc1` here?
Its Potency is inconclusive: 23.1 µM [inhibitor, single point].

For `Cc1ccc(-c2nc(Nc3ccc(N4CCOCC4)cc3)c3ccccc3n2)cc1`, which Potency is on record?
Its Potency is inconclusive: 20 µM [inhibitor, partial curve, poor fit].

Which “activity change, negative = inhibition” value does the source give for `Cc1ccc(Cl)cc1N1CCN(C(=O)c2ccc(CN3CCOCC3)cc2)CC1` here?
The value was inactive: -29.8%.

Which Potency does the source give for `COCOCCn1cc(CN2CCS(=O)(=O)N(Cc3ccc(-c4ccc(Cl)nc4)cc3)C(CC(C)C)C2=O)nn1` (configuration not stated) here?
Its Potency is inconclusive: 11.2 µM [activator, single point].

With `CCOc1cccc(C(=O)Nc2cccc(C(=O)NCC(C)C)c2)c1` as the compound, how does the Potency read?
The Potency was inconclusive: 12.6 µM [inhibitor, partial curve, poor fit].

For `O=C(Nc1ccc(Cl)cc1)Nc1cccc(C(=O)O)c1`, which Potency is on record?
Its Potency is active: 0.326 µM.

With `c1ccc2c(c1)CCN(c1nc3cc4c(cc3s1)OCO4)C2` as the compound, how does the Potency read?
The Potency was inconclusive: 29.1 µM [inhibitor, single point].

With `CC(=O)Oc1ccc(-c2ccc(C(=O)Nc3cccc(S(=O)(=O)N4CCOCC4)c3)cc2)cc1` as the compound, how does the Potency read?
Its Potency is inconclusive: 2.82 µM [inhibitor, partial curve, poor fit].

For `O=C(Nc1ccc(Br)cc1)c1ccc(F)c(S(=O)(=O)N2CCCc3ccccc32)c1`, which Potency is on record?
Its Potency is inconclusive: 4.47 µM [inhibitor, full curve, poor fit].

With `Cc1ccc(N2CC(C(=O)OCc3nnc(-c4ccccc4)o3)CC2=O)cc1` (configuration not stated) as the compound, how does the Potency read?
Its Potency is inconclusive: 0.126 µM [inhibitor, full curve, poor fit].

Which Potency does the source give for `CCOC(=O)c1c(NC(=O)C2c3ccccc3Oc3ccccc32)sc(C(N)=O)c1C` here?
The Potency was inconclusive: 1.26 µM [activator, single point].

Which Potency does the source give for `COc1ccc(Nc2nc(C)nc3c2oc2ccccc23)c(OC)c1` here?
The Potency was inconclusive: 3.16 µM [inhibitor, partial curve, poor fit].

Which Potency does the source give for `O=C(c1cc(-c2cccc(Cl)c2)on1)N1CCN(c2ccccc2)CC1` here?
Its Potency is “inactive”.

Which “activity change, negative = inhibition” value does the source give for `CC(C)c1cnc2c(c1SCC(=O)Nc1ccc(OC(F)(F)F)cc1)c(=O)n(C)c(=O)n2C` here?
The value was inactive: -5.7% [at 46.1 µM].

Which Potency does the source give for `COc1ccc(NS(=O)(=O)c2cc(NC(=O)c3ccc(F)cc3)ccc2OC)cc1` here?
Its Potency is inconclusive: 23.1 µM [inhibitor, single point].

For `Cc1ccc(NC2=C(CC(=O)O)C(c3ccc(F)cc3)N(c3ccc(C)cc3)C2=O)cc1` (configuration not stated), which Potency is on record?
The Potency was inconclusive: 12.6 µM [inhibitor, partial curve, poor fit].

For `CCOC(=O)c1ccc(NCCc2ccc(OC)c(OC)c2)c(N)c1`, which Potency is on record?
Its Potency is inconclusive: 5.01 µM [inhibitor, full curve].

With `O=C(O)CCC(=O)Nc1ccccc1N1CCOCC1` as the compound, how does the “activity change, negative = inhibition” value read?
Its value is inactive: 10.2%.

Which Potency does the source give for `Cc1cc(C(=O)NN)n[nH]1` here?
Its Potency is inconclusive: 5.62 µM [activator, single point].

For `Cc1ccc(CNC(=O)CCN2C(=O)COc3ccc(C)cc32)cc1`, which “activity change, negative = inhibition” value is on record?
Its value is inactive: 14.8% [at 46.1 µM].

With `Cc1cc(C)cc(NC(=O)c2ccc3c(c2)nnn3C2CCCC2)c1` as the compound, how does the Potency read?
The Potency was inconclusive: 3.55 µM [inhibitor, single point].

With `O=c1[nH]cccc1-c1nc2ccccc2n1Cc1cccc(F)c1` as the compound, how does the “activity change, negative = inhibition” value read?
Its value is inactive: 0.298%.

Which “activity change, negative = inhibition” value does the source give for `CCOC(=O)c1cccc(NC(=O)c2cc3c(=O)n(C)c4ccccc4c3n2C)c1` here?
The value was inactive: 5.77% [at 46.1 µM].

For `Cc1cc(C)cc(OCC(=O)NC2CCCc3ccccc32)c1` (configuration not stated), which Potency is on record?
Its Potency is inconclusive: 1.41 µM [inhibitor, single point].

With `CCc1nnc2c(Nc3cccc(F)c3)nc3ccc(C(=O)c4ccccc4)cc3n12` as the compound, how does the Potency read?
Its Potency is inconclusive: 5.01 µM [inhibitor, partial curve, poor fit].

With `O=C(Nc1ccon1)c1ccc(OC2CCCC2)cc1` as the compound, how does the Potency read?
The Potency was inconclusive: 35.5 µM [inhibitor, single point].

Which “activity change, negative = inhibition” value does the source give for `Cn1c(=O)c2nc(SCc3ccccc3)n(C)c2n(C)c1=O` here?
Its value is inactive: 19% [at 46.1 µM].

For `O=C(/C=C/c1ccc(Cl)c([N+](=O)[O-])c1)Nc1cccc(NC(=O)c2ccco2)c1`, which Potency is on record?
Its Potency is inconclusive: 25.9 µM [inhibitor, single point].

Which “activity change, negative = inhibition” value does the source give for `Nc1cc(N)nc(SCC(=O)N2CCCCC2)n1` here?
The value was inactive: 0.518%.

Which “activity change, negative = inhibition” value does the source give for `O=C(NCC1CCCO1)/C(=C/c1cn(-c2ccccc2)nc1-c1cccnc1)NC(=O)c1ccccc1` (configuration not stated) here?
The value was inactive: -22.5% [at 46.1 µM].

Which Potency does the source give for `Cc1ccccc1C(=O)NC(=S)Nc1ccc(N2CCOCC2)cc1` here?
Its Potency is inconclusive: 12.6 µM [inhibitor, single point].

Which Potency does the source give for `CC(CN1CCCCC1)OC(=O)C(C)(c1ccccc1)c1ccccc1` (configuration not stated) here?
The Potency was inconclusive: 6.51 µM [inhibitor, partial curve].
